The name of at least one read-out is uncertain.
Experiment: Steady-state kinetics of ferrochelatase and P255 variants
Type: biochemical, murine
Description: One possible explanation for these findings is that the mechanism of interaction between the enzyme and the protoporphyrin substrate differs from that for inhibitor binding. It is conceivable that the active site of ferrochelatase is optimized for interaction with the protoporphyrin substrate and retains a certain degree of plasticity towards this end. Possibly, this facilitates the induction of porphyrin deformation in the protein matrix, and in so doing, ensures the catalytic reaction to proceed. In contrast, the constraints of the active site towards NMPP are presumably more stringent than towards the protoporphyrin substrate and any alterations of the active site affect the selectivity towards NMPP. Another possible explanation, and not necessarily mutually exclusive from the former, is that mutations introduced in the active site (e.g., at the P255 position) cause an alteration of the regiospecificity of ferrochelatase, such that the mutated active site can accommodate either a regioisomer or a combination of regioisomers of NMPP different from those of the wild-type active site. It is worth noting that 1) the commercially available NMPP used in this study consists of a racemic mixture of the eight potential isomers and 2) only one NMPP isomer was identified in the crystal structure of the B. subtillis ferrochelatase.
Protein Purification. […]

Row | Molecule | specificity constant for protoporphyrin kcat/Km^PPIX [min^−1μM^−1]
1 | P255R: murine ferrochelatase variant in which P255 was replaced with arginine (protein, UniProt P22315 54-422, looked up, variant P255R) Ferrochelatase, mitochondrial: TTKPQAQPERRKPKTGILMLNMGGPETLGEVQDFLQRLFLDRDLMTLPIQNKLAPFIAKRRTPKIQEQYRRIGGGSPIKMWTSKQGEGMVKLLDELSPATAPHKYYIGFRYVHPLTEEAIEEMERDGLERAIAFTQYPQYSCSTTGSSLNAIYRYYNEVGQKPTMKWSTIDRWPTHPLLIQCFADHILKELNHFPEEKRSEVVILFSAHSLPMSVVNRGDPYPQEVGATVHKVMEKLGYPNPYRLVWQSKVGPVRWLGPQTDEAIKGLCERGRKNILLVPIAFTSDHIETLYELDIEYSQVLAQKCGAENIRRAESLNGNPLFSKALADLVHSHIQSNKLCSTQLSLNCPLCVNPVCRKTKSFFTSQQL | 2.94
2 | P255G: murine ferrochelatase variant in which P255 was replaced with glycine (protein, UniProt P22315 54-422, looked up, variant P255G) Ferrochelatase, mitochondrial: TTKPQAQPERRKPKTGILMLNMGGPETLGEVQDFLQRLFLDRDLMTLPIQNKLAPFIAKRRTPKIQEQYRRIGGGSPIKMWTSKQGEGMVKLLDELSPATAPHKYYIGFRYVHPLTEEAIEEMERDGLERAIAFTQYPQYSCSTTGSSLNAIYRYYNEVGQKPTMKWSTIDRWPTHPLLIQCFADHILKELNHFPEEKRSEVVILFSAHSLPMSVVNRGDPYPQEVGATVHKVMEKLGYPNPYRLVWQSKVGPVGWLGPQTDEAIKGLCERGRKNILLVPIAFTSDHIETLYELDIEYSQVLAQKCGAENIRRAESLNGNPLFSKALADLVHSHIQSNKLCSTQLSLNCPLCVNPVCRKTKSFFTSQQL | 2.35

— US8586530B2, “Modulation of inhibition of ferrochelatase by N-methyl protoporphyrin” (University of South Florida, priority 2006, dated 2013)
